Experimental data reported in article PMC13507320, “Synergistic effect of PIP2 and PIP3 on membrane-induced phase separation of integrin complexes” (Biophysical Journal, 2025).
Results are given in words; binding and its absence hold for the method and conditions named. Some entries that bind do so weakly or less than the wild type.

The chains behind the UniProt entries cited, without tags or fusion partners. Residues count along the entry.
UniProt P05556, residues 752-798: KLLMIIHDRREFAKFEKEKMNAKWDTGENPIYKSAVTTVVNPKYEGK
UniProt Q9Y490: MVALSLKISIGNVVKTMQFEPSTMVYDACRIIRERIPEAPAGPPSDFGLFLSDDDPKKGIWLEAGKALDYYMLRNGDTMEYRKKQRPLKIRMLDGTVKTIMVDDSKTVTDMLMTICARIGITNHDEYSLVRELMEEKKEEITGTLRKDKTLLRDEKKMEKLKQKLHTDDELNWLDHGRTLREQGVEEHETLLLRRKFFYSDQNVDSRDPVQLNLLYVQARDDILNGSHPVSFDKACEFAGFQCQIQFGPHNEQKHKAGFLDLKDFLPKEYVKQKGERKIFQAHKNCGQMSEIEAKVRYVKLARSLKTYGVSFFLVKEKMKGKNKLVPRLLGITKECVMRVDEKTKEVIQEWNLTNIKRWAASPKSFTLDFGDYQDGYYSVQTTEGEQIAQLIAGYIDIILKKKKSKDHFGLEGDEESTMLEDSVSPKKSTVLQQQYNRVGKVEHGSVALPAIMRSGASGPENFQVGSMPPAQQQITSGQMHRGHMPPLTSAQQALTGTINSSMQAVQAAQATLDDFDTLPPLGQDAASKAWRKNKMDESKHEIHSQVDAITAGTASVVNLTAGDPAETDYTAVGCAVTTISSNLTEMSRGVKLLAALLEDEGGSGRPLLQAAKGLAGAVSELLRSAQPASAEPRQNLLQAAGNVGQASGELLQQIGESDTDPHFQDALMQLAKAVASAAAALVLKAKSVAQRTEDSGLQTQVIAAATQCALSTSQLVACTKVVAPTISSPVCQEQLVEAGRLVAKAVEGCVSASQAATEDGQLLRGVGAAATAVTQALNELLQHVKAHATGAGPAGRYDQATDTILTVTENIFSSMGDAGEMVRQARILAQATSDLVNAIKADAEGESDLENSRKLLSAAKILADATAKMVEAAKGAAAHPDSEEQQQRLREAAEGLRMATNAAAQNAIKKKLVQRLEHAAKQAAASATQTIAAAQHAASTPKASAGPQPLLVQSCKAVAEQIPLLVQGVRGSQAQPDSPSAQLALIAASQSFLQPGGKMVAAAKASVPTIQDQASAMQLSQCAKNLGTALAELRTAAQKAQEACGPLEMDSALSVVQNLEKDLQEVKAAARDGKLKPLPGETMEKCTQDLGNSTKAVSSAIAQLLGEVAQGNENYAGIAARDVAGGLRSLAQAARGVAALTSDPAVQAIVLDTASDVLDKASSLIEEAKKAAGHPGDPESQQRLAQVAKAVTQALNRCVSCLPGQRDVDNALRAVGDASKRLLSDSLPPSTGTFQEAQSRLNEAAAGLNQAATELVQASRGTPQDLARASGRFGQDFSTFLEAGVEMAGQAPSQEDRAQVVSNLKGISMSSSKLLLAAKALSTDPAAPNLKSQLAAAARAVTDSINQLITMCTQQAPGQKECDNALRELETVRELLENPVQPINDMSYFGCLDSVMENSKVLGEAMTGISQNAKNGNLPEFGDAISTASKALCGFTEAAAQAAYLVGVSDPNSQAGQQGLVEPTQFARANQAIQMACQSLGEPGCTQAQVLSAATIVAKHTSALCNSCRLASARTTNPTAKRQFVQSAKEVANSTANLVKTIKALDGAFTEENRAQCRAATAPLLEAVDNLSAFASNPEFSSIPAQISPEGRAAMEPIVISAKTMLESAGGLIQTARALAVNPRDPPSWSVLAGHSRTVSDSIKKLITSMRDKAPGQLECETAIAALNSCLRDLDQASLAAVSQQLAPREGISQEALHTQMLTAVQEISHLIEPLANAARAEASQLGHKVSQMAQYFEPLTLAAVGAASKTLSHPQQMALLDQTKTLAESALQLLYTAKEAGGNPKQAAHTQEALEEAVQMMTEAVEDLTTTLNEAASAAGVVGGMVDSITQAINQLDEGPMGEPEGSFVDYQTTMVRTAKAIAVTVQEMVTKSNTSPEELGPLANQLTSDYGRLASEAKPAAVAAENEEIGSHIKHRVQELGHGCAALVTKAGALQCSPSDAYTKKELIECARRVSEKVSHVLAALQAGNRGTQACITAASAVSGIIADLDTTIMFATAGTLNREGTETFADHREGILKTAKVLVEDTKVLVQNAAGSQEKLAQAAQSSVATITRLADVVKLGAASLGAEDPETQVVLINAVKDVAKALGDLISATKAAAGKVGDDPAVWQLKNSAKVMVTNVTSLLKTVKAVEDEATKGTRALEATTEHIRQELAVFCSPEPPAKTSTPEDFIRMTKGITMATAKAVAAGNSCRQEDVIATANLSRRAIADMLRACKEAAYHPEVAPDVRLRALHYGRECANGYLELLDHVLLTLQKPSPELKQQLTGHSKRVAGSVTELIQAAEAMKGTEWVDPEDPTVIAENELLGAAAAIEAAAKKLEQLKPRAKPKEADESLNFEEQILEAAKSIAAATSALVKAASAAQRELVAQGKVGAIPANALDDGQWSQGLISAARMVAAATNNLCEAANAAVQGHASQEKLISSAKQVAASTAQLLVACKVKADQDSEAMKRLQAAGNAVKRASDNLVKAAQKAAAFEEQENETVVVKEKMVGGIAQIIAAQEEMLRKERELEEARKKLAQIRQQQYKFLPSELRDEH

Columns and labels:
[1] = target: Atto643-labeled his6-β1 integrin cytoplasmic tail peptide (UniProt P05556); assay: FRAP of the tethered partner on supported lipid bilayers (slowdown of diffusion); his6-β1 tails tethered on 5% PIP2, 5% PIP3 and 2.5% PIP2 + 2.5% PIP3 bilayers; 1 μM kindlin and 1 μM talin incubated together for 30 min, also after flush; both purified
[2] = target: Atto643-labeled his6-β1 integrin cytoplasmic tail peptide (UniProt P05556); assay: FRAP of the tethered partner on supported lipid bilayers (slowdown of diffusion); his6-β1 tails tethered to DGS-NTA-Ni on 2.5% PIP2 + 2.5% PIP3 supported lipid bilayer; 1 μM kindlin or 1 μM talin, 30-min incubation; HEPES buffer pH 7.4, 150 mM KCl, 2.5 μM ZnCl2; both purified
[3] = target: Atto643-labeled his6-β1 integrin cytoplasmic tail peptide (UniProt P05556); assay: FRAP of the tethered partner on supported lipid bilayers (slowdown of diffusion); his6-β1 tails tethered on 5% PIP2, 5% PIP3 and 2.5% PIP2 + 2.5% PIP3 bilayers; 0.1–2 μM kindlin or talin incubated individually for 30 min, then flushed with buffer; diffusion after flush against β1 tails alone; both purified

binding [1]	binding [2]	binding [3]	Molecule
binds	binds	binds	His-tagged talin-1 (from UniProt Q9Y490 1-2541)
binds	binds	binds	Kindlin-2 (natural protein, UniProt Q96AC1 1-680, looked up, Kindlin-2; the species may be mouse there; source: E. coli (DE3) Rosetta 2, purified (Ni-NTA IMAC, SenP2 digest, size-exclusion chromatography); not shown: His-SUMO, N-terminal, cleaved) MALDGIRMPDGCYADGTWELSVHVTDLNRDVTLRVTGEVHIGGVMLKLVEKLDVKKDWSDHALWWEKKRTWLLKTHWTLDKYGIQADAKLQFTPQHKLLRLQLPNMKYVKVKVNFSDRVFKAVSDICKTFNIRHPEELSLLKKPRDPTKKKKKKLDDQSEDEALELEGPLITPGSGSIYSSPGLYSKTMTPTYDAHDGSPLSPTSAWFGDSALSEGNPGILAVSQPITSPEILAKMFKPQALLDKAKINQGWLDSSRSLMEQDVKENEALLLRFKYYSFFDLNPKYDAIRINQLYEQAKWAILLEEIECTEEEMMMFAALQYHINKLSIMTSENHLNNSDKEVDEVDAALSDLEITLEGGKTSTILGDITSIPELADYIKVFKPKKLTLKGYKQYWCTFKDTSISCYKSKEESSGTPAHQMNLRGCEVTPDVNISGQKFNIKLLIPVAEGMNEIWLRCDNEKQYAHWMAACRLASKGKTMADSSYNLEVQNILSFLKMQHLNPDPQLIPEQITTDITPECLVSPRYLKKYKNKQITARILEAHQNVAQMSLIEAKMRFIQAWQSLPEFGITHFIARFQGGKKEELIGIAYNRLIRMDASTGDAIKTWRFSNMKQWNVNWEIKMVTVEFADEVRLSFICTEVDCKVVHEFIGGYIFLSTRAKDQNESLDEEMFYKLTSGWV
